Here are results for 11 molecules from publication PMC9765456.

Amino acid sequences for entries named in this document (tags omitted). A change or cut given only in a name is not applied to a line headed by its entry.
UniProt P84092: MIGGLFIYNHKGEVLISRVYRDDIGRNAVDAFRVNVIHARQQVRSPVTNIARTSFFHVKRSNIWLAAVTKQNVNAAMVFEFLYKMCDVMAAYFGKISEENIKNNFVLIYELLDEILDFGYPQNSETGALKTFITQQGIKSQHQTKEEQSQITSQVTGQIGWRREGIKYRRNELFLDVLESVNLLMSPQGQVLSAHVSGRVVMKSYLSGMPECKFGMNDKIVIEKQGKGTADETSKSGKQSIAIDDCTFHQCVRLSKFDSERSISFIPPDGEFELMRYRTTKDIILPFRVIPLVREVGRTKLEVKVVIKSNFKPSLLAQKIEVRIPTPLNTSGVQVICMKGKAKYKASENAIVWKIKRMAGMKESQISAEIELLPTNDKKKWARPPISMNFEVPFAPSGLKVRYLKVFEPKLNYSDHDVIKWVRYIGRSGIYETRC
UniProt P03129: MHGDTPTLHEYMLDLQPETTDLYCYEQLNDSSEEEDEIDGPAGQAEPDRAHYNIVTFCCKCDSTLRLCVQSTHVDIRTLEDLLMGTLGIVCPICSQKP
UniProt Q96CW1: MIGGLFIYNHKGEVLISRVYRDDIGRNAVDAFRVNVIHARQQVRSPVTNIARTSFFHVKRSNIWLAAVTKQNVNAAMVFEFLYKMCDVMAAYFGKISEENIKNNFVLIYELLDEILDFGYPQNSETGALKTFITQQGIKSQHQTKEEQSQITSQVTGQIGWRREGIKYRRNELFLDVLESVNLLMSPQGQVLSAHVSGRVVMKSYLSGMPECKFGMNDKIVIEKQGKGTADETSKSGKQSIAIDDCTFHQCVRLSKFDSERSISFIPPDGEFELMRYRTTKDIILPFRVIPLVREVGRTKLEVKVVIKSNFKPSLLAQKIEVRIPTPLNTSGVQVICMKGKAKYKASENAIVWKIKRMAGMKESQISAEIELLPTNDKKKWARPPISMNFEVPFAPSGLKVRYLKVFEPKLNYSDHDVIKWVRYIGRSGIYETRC
UniProt P63010: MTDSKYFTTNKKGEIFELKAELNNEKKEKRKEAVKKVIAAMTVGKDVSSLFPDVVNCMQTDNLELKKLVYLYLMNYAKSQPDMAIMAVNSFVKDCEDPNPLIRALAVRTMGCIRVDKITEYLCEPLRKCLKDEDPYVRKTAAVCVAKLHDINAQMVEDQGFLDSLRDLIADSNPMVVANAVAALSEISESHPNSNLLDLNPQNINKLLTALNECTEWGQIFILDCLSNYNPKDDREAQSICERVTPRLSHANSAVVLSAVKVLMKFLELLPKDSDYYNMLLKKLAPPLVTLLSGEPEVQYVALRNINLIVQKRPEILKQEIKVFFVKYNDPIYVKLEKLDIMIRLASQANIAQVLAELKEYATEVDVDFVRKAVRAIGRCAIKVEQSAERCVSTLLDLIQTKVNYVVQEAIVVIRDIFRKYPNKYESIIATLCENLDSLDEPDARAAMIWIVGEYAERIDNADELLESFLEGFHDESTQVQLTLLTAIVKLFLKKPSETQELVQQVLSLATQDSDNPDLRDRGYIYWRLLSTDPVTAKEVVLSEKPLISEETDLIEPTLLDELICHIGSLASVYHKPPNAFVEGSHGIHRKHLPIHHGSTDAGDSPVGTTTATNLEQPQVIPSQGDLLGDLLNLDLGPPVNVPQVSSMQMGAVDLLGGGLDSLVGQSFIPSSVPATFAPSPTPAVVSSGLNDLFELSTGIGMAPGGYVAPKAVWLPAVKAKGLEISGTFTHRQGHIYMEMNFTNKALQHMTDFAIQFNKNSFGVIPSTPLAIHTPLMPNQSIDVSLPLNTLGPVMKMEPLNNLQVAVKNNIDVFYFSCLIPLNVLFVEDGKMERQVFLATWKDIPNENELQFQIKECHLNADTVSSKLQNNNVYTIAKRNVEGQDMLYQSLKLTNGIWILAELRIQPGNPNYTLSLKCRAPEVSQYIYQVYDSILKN

The target in assay [1] is HA-tagged AP2-μ2 wild type (UniProt P84092). The assay is described as follows: co-IP.
Assay [2] concerns the target C-terminally FLAG/HA-tagged HPV-16 E7 wild type (human papillomavirus type 16) (UniProt P03129). The assay is described as follows: co-IP.
Assay [3] has as its target T1, C-terminally FLAG/HA-tagged HPV-11 E7 (human papillomavirus type 11) (UniProt P04020).
T1 sequence: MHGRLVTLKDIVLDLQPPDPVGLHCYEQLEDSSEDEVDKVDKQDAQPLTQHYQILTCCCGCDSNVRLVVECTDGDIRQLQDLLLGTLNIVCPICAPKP
The assay is described as follows: co-IP.

Assay [4] has as its target GST-16 E7 (HPV-16 E7 GST fusion protein) (human papillomavirus type 16) (UniProt P03129). Nature of the assay: pull-down; only the target purified.
Assay [5] has as its target GST-phospho-16 E7 (human papillomavirus type 16) (UniProt P03129). Nature of the assay: pull-down; only the target purified.
Assay [6] concerns the target AP2-μ2 (endogenous) (human (endogenous in SiHa, CaSki, NIKS, HaCaT)) (UniProt Q96CW1). The assay is described as follows: co-IP.
Assay [7] concerns the target AP2-β2-μ2 hemicomplex (H6β2-trunk + μ2-myc) (UniProt P63010). The assay is described as follows: pull-down; only the target purified.
The target of assay [8] is C-terminally FLAG-tagged HPV-16 E7 (human papillomavirus type 16) (UniProt P03129). The assay is described as follows: co-IP.

No constants are given. Whether binding was seen depends on the method and setting. In cells and extracts the contact can be indirect. Some entries that bind do so weakly or less than the wild type. For some assays here: Where a sequence is shown, tags or fusion partners need not be part of it.

“C-terminally FLAG-tagged HPV-16 E7 (from UniProt P03129 1-98)”: the binding entry in assay [1] is on record as “binds”.
Regarding “HA-tagged AP2-μ2 K308E/K312E (from UniProt P84092 1-435)”, the binding result in assay [2] is “binds”.
As for “HA-tagged AP2-μ2 wild type (from UniProt P84092 1-435)”, the binding entry in assay [3] and in assay [2] was “binds” each time.
As for “AP2-μ2 (endogenous) (from UniProt Q96CW1 1-435)”, the binding entry in assay [4] and in assay [5] was “binds” each time.
On to “HPV-16 E7 (endogenously expressed in SiHa and CaSki cells) (from UniProt P03129 1-98)”, for which, in assay [6], the binding result was “binds”.
On to “in vitro translated, [35S]-radiolabelled AP2-μ2 (μ2-HA-WT) (from UniProt P84092 1-435)”, for which the binding entry in assay [4] is “binds”.
“C-terminally FLAG/HA-tagged HPV-16 E7 wild type (from UniProt P03129 1-98)”: the binding result in assay [6] and in assay [7] was “binds” throughout.

B1: C-terminally FLAG/HA-tagged HPV-11 E7 (protein, UniProt P04020 1-98)
chain: MHGRLVTLKDIVLDLQPPDPVGLHCYEQLEDSSEDEVDKVDKQDAQPLTQHYQILTCCCGCDSNVRLVVECTDGDIRQLQDLLLGTLNIVCPICAPKP
As to B1, the binding result in assay [6] is “binds”.

B2: C-terminal FLAG-tagged HPV-11 E7 (protein, UniProt P04020 1-98)
chain: MHGRLVTLKDIVLDLQPPDPVGLHCYEQLEDSSEDEVDKVDKQDAQPLTQHYQILTCCCGCDSNVRLVVECTDGDIRQLQDLLLGTLNIVCPICAPKP
Turning to B2, in assay [1], the binding result is “binds”.

B3: HA-tagged pRb (protein, UniProt P06400 1-928)
chain: MPPKTPRKTAATAAAAAAEPPAPPPPPPPEEDPEQDSGPEDLPLVRLEFEETEEPDFTALCQKLKIPDHVRERAWLTWEKVSSVDGVLGGYIQKKKELWGICIFIAAVDLDEMSFTFTELQKNIEISVHKFFNLLKEIDTSTKVDNAMSRLLKKYDVLFALFSKLERTCELIYLTQPSSSISTEINSALVLKVSWITFLLAKGEVLQMEDDLVISFQLMLCVLDYFIKLSPPMLLKEPYKTAVIPINGSPRTPRRGQNRSARIAKQLENDTRIIEVLCKEHECNIDEVKNVYFKNFIPFMNSLGLVTSNGLPEVENLSKRYEEIYLKNKDLDARLFLDHDKTLQTDSIDSFETQRTPRKSNLDEEVNVIPPHTPVRTVMNTIQQLMMILNSASDQPSENLISYFNNCTVNPKESILKRVKDIGYIFKEKFAKAVGQGCVEIGSQRYKLGVRLYYRVMESMLKSEEERLSIQNFSKLLNDNIFHMSLLACALEVVMATYSRSTSQNLDSGTDLSFPWILNVLNLKAFDFYKVIESFIKAEGNLTREMIKHLERCEHRIMESLAWLSDSPLFDLIKQSKDREGPTDHLESACPLNLPLQNNHTAADMYLSPVRSPKKKGSTTRVNSTANAETQATSAFQTQKPLKSTSLSLFYKKVYRLAYLRLNTLCERLLSEHPELEHIIWTLFQHTLQNEYELMRDRHLDQIMMCSMYGICKVKNIDLKFKIIVTAYKDLPHAVQETFKRVLIKEEEYDSIIVFYNSVFMQRLKTNILQYASTRPPTLSPIPHIPRSPYKFPSSPLRIPGGNIYISPLKSPYKISEGLPTPTKMTPRSRILVSIGESFGTSEKFQKINQMVCNSDRVLKRSAEGSNPPKPLKKLRFDIEGSDEADGSKHLPGESKFQQKLAEMTSTRTRMQKQKMNDSMDTSNKEEK
Turning to B3, the binding entry in assay [2] is “binds”.

B4: pRB (endogenous in HEK 293) (protein, UniProt P06400 1-928)
chain: MPPKTPRKTAATAAAAAAEPPAPPPPPPPEEDPEQDSGPEDLPLVRLEFEETEEPDFTALCQKLKIPDHVRERAWLTWEKVSSVDGVLGGYIQKKKELWGICIFIAAVDLDEMSFTFTELQKNIEISVHKFFNLLKEIDTSTKVDNAMSRLLKKYDVLFALFSKLERTCELIYLTQPSSSISTEINSALVLKVSWITFLLAKGEVLQMEDDLVISFQLMLCVLDYFIKLSPPMLLKEPYKTAVIPINGSPRTPRRGQNRSARIAKQLENDTRIIEVLCKEHECNIDEVKNVYFKNFIPFMNSLGLVTSNGLPEVENLSKRYEEIYLKNKDLDARLFLDHDKTLQTDSIDSFETQRTPRKSNLDEEVNVIPPHTPVRTVMNTIQQLMMILNSASDQPSENLISYFNNCTVNPKESILKRVKDIGYIFKEKFAKAVGQGCVEIGSQRYKLGVRLYYRVMESMLKSEEERLSIQNFSKLLNDNIFHMSLLACALEVVMATYSRSTSQNLDSGTDLSFPWILNVLNLKAFDFYKVIESFIKAEGNLTREMIKHLERCEHRIMESLAWLSDSPLFDLIKQSKDREGPTDHLESACPLNLPLQNNHTAADMYLSPVRSPKKKGSTTRVNSTANAETQATSAFQTQKPLKSTSLSLFYKKVYRLAYLRLNTLCERLLSEHPELEHIIWTLFQHTLQNEYELMRDRHLDQIMMCSMYGICKVKNIDLKFKIIVTAYKDLPHAVQETFKRVLIKEEEYDSIIVFYNSVFMQRLKTNILQYASTRPPTLSPIPHIPRSPYKFPSSPLRIPGGNIYISPLKSPYKISEGLPTPTKMTPRSRILVSIGESFGTSEKFQKINQMVCNSDRVLKRSAEGSNPPKPLKKLRFDIEGSDEADGSKHLPGESKFQQKLAEMTSTRTRMQKQKMNDSMDTSNKEEK
Take B4: in assay [8], the binding entry is reported as “binds”.
